≈ marks a conversion by molar mass, not a printed value. The source gives many values for each of these; only a part stands here.
Test system: Mannheimia haemolytica
Assay: minimum inhibitory concentration (MIC)
Procedure: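 Broth microdilution MIC (Sensititre BOPO7F bovine plate, CLSI methods) of 19 antimicrobials against field isolates of P. multocida, M. haemolytica, H. somni (deep nasopharyngeal swabs) and E. coli, Enterococcus spp. (rectal swabs) from weaned dairy heifers. Incubation 16-24 h at 35 C. MIC is the lowest concentration preventing visible growth. Values with <= or > lie at the tested range limits. Trimethoprim-sulfamethoxazole is given as the trimethoprim component of a 1:19 mixture.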

Row | Compound | minimum inhibitory concentration (isolate (source animal id): 3) [µg/mL] | minimum inhibitory concentration (isolate (source animal id): 60) [µg/mL] | minimum inhibitory concentration (isolate (source animal id): 61) [µg/mL] | minimum inhibitory concentration (isolate (source animal id): 64) [µg/mL] | minimum inhibitory concentration (isolate (source animal id): 65) [µg/mL] | minimum inhibitory concentration (isolate (source animal id): 66) [µg/mL] | minimum inhibitory concentration (isolate (source animal id): 67) [µg/mL] | minimum inhibitory concentration (isolate (source animal id): 68) [µg/mL] | minimum inhibitory concentration (isolate (source animal id): 70) [µg/mL] | minimum inhibitory concentration (isolate (source animal id): 72) [µg/mL] | minimum inhibitory concentration (isolate (source animal id): 74) [µg/mL] | minimum inhibitory concentration (isolate (source animal id): 76) [µg/mL] | minimum inhibitory concentration (isolate (source animal id): 80) [µg/mL] | minimum inhibitory concentration (isolate (source animal id): 82) [µg/mL] | minimum inhibitory concentration (isolate (source animal id): 83) [µg/mL] | minimum inhibitory concentration (isolate (source animal id): 84) [µg/mL] | minimum inhibitory concentration (isolate (source animal id): 85) [µg/mL] | minimum inhibitory concentration (isolate (source animal id): 86) [µg/mL] | minimum inhibitory concentration (isolate (source animal id): 87) [µg/mL]
1 | CC1(C)S[C@@H]2[C@H](NC(=O)[C@H](N)c3ccccc3)C(=O)N2[C@H]1C(=O)O [Ampicillin] | ≤ 0.25 | ≤ 0.25 | > 16 | ≤ 0.25 | > 16 | ≤ 0.25 | ≤ 0.25 | ≤ 0.25 | ≤ 0.25 | ≤ 0.25 | > 16 | ≤ 0.25 | > 16 | ≤ 0.25 | ≤ 0.25 | ≤ 0.25 | ≤ 0.25 | ≤ 0.25 | ≤ 0.25
2 | CO/N=C(\C(=O)N[C@@H]1C(=O)N2C(C(=O)O)=C(CSC(=O)c3ccco3)CS[C@H]12)c1csc(N)n1 [Ceftiofur] | ≤ 0.25 | ≤ 0.25 | ≤ 0.25 | ≤ 0.25 | ≤ 0.25 | ≤ 0.25 | ≤ 0.25 | ≤ 0.25 | ≤ 0.25 | ≤ 0.25 | ≤ 0.25 | ≤ 0.25 | ≤ 0.25 | ≤ 0.25 | ≤ 0.25 | ≤ 0.25 | ≤ 0.25 | ≤ 0.25 | ≤ 0.25
3 | CCC[C@@H]1C[C@@H](C(=O)N[C@@H]([C@H]2O[C@H](SC)[C@H](O)[C@@H](O)[C@H]2O)[C@H](C)Cl)N(C)C1 [Clindamycin] | 16 (≈ 37.6 µM) | 16 (≈ 37.6 µM) | > 16 | 16 (≈ 37.6 µM) | > 16 | 16 (≈ 37.6 µM) | > 16 | 16 (≈ 37.6 µM) | > 16 | 16 (≈ 37.6 µM) | > 16 | 16 (≈ 37.6 µM) | > 16 | > 16 | 8 (≈ 18.8 µM) | > 16 | 16 (≈ 37.6 µM) | 16 (≈ 37.6 µM) | 16 (≈ 37.6 µM)
4 | CN1C[C@@H]2C[C@H]1CN2c1cc2c(cc1F)c(=O)c(C(=O)O)cn2C1CC1 [Danofloxacin] | 0.5 (≈ 1.4 µM) | 0.5 (≈ 1.4 µM) | > 1 | 0.25 (≈ 0.7 µM) | > 1 | 0.5 (≈ 1.4 µM) | > 1 | 0.5 (≈ 1.4 µM) | > 1 | 0.5 (≈ 1.4 µM) | > 1 | 0.5 (≈ 1.4 µM) | 0.5 (≈ 1.4 µM) | > 1 | ≤ 0.12 | 0.5 (≈ 1.4 µM) | > 1 | > 1 | > 1
